In PMC12372851:
These are yes or no findings as the source states them, for the method shown. In cells and extracts the contact can be indirect. Binding can be weak; no strength is given. Where a sequence is shown, tags or fusion partners need not be part of it.

Target: T1, 3Flag-Six1b (zebrafish Six1b, Flag-tagged) (zebrafish) (UniProt Q6NZ04)
T1 sequence: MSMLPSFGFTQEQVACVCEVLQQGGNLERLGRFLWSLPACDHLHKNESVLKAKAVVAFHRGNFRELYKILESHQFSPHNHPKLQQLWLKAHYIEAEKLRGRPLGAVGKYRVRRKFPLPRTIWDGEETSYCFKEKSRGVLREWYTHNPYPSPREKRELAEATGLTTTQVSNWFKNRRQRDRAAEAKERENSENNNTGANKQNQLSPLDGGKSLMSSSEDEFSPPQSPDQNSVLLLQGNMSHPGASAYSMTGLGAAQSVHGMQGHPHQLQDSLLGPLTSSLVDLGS
Test: co-IP; 3HA-Eya2 and 3Flag-Six1b coexpressed in HEK293T cells; lysed in RIPA buffer 36 h after transfection; lysates incubated overnight at 4°C with HA or Flag antibodies, then protein A/G beads; washed with 50 mM tris-HCl (pH 7.4), 150 mM NaCl, 0.5% Triton X-100; Western blotting

3HA-Eya2 (zebrafish Eya2, hemagglutinin-tagged)
binding: binds
